Measured values reported in patent US20180298401A1 (CORNELL UNIVERSITY, published 2018).
No constants are given. Whether binding was seen depends on the method and setting. Some entries that bind do so weakly or less than the wild type.

The chains behind the UniProt entries cited, without tags or fusion partners. Where a name states a change or a piece, a line headed by the entry shows the natural chain unless it says otherwise. Residues count along the entry.
UniProt Q31NB2: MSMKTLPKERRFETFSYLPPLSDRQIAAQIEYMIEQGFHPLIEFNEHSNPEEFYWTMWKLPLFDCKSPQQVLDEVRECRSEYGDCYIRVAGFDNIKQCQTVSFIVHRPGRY
UniProt P69249, residues 58-180: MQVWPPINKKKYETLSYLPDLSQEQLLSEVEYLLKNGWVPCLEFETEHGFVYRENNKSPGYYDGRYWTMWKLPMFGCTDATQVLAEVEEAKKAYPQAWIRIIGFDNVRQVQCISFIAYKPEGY

Target: Rubisco from the cyanobacterium Synechococcus elongatus PCC7942 (hexadecameric holoenzyme of eight LSU and eight SSU), expressed in tobacco chloroplasts (Synechococcus elongatus PCC7942) (UniProt Q31NB3+Q31NB2)
Test: TEM with immunogold labelling of SeLSM35 and SeLSYM35 leaf sections

Tobacco Rubisco small subunit (SSU) (from UniProt P69249 58-180) (enzyme)
binding: binds
